The list shows a part of the results. Most values lie at the level of the controls, where differences are scatter.

Chains of the proteins cited; added tags and fusions are not shown. Lines headed by an entry give the natural chain unless they say otherwise; changes in a name come on top.
UniProt Q14657: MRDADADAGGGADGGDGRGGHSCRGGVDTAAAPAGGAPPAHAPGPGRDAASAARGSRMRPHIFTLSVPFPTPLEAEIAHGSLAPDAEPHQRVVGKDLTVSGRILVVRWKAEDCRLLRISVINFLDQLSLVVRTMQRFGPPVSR
UniProt Q14677: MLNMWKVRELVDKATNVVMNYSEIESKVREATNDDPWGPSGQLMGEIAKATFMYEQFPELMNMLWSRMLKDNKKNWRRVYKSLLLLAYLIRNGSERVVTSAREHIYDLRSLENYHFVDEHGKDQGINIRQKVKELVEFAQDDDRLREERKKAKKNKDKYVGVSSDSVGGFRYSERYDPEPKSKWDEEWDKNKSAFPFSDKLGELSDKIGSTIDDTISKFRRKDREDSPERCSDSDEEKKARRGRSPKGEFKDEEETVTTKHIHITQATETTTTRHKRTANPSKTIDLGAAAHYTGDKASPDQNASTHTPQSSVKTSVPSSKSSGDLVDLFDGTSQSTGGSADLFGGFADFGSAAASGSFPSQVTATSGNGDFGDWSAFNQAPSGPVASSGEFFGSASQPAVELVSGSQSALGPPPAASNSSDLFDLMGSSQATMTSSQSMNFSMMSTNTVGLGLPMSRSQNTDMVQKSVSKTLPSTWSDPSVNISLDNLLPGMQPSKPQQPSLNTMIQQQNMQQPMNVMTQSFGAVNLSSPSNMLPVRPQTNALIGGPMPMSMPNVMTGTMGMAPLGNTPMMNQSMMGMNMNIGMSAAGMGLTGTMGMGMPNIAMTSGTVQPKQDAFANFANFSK
UniProt Q14CZ7: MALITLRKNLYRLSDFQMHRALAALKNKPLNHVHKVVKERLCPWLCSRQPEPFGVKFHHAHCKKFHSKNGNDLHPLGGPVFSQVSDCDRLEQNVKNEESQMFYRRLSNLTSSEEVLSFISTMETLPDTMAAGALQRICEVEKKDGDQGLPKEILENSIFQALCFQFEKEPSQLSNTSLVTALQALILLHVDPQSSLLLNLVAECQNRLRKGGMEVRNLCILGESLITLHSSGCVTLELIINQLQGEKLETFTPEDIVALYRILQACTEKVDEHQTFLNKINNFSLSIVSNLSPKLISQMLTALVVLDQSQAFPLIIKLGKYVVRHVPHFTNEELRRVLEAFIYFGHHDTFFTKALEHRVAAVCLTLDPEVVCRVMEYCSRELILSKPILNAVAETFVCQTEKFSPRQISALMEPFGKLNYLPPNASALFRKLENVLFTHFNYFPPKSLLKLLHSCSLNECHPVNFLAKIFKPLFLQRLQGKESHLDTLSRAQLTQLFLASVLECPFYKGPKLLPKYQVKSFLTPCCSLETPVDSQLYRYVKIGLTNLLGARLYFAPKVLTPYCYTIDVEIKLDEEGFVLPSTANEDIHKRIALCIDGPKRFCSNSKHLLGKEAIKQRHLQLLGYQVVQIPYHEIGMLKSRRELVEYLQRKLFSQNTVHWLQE
UniProt Q14498: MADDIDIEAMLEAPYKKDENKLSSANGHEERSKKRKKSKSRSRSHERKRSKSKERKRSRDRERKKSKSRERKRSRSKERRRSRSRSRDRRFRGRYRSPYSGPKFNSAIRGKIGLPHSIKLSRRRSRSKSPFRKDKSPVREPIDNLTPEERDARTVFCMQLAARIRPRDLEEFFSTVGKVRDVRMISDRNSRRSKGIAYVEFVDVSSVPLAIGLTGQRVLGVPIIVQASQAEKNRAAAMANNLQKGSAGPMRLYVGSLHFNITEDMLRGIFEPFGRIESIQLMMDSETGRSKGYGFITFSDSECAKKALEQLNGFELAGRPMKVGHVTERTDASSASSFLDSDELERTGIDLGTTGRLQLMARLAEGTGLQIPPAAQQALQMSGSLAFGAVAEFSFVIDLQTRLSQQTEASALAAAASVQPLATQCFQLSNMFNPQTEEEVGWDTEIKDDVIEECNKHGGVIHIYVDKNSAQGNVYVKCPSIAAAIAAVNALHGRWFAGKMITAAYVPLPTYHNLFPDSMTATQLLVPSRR
UniProt Q15003, whole entry: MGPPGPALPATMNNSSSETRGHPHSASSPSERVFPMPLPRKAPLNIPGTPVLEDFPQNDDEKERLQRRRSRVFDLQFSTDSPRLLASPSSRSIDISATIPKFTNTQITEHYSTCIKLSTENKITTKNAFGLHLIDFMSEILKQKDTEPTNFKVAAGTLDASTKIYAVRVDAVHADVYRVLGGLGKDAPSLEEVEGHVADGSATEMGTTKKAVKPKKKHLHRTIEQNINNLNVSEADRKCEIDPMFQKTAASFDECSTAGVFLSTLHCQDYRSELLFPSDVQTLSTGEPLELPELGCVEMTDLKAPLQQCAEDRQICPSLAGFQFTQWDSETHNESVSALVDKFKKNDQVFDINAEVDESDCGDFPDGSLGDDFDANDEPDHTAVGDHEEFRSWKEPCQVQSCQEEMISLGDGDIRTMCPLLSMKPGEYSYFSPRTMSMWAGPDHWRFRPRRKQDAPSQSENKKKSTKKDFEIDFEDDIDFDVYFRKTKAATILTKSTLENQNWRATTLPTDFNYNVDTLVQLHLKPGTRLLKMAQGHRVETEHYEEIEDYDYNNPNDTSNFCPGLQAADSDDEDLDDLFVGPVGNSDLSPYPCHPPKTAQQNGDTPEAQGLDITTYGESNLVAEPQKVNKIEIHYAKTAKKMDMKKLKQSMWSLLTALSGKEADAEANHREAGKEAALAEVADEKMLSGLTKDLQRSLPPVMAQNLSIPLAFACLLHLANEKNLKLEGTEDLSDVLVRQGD
UniProt Q14CS0: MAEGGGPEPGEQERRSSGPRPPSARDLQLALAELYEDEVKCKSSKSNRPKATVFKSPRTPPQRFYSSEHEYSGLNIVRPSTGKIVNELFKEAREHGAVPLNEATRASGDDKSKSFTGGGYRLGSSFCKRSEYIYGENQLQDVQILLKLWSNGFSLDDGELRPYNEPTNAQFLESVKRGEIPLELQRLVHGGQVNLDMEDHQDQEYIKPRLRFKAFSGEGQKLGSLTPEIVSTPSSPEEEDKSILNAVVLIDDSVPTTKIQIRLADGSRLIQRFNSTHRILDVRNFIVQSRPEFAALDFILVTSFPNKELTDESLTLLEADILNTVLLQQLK
UniProt Q15051: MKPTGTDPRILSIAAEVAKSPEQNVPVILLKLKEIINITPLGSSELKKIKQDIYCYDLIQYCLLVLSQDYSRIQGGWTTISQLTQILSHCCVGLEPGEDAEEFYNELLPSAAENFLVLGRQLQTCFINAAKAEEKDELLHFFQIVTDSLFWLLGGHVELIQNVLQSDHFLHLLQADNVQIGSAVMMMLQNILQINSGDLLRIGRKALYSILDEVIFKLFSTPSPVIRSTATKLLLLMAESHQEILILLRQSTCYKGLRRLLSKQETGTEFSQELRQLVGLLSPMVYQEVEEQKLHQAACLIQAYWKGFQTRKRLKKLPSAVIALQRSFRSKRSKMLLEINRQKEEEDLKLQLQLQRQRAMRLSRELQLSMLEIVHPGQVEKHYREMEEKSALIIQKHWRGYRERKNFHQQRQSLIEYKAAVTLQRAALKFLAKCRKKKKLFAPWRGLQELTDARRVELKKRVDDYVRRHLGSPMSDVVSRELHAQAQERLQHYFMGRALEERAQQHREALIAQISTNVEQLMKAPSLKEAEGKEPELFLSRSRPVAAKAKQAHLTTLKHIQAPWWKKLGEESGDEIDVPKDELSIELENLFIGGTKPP
UniProt Q14257: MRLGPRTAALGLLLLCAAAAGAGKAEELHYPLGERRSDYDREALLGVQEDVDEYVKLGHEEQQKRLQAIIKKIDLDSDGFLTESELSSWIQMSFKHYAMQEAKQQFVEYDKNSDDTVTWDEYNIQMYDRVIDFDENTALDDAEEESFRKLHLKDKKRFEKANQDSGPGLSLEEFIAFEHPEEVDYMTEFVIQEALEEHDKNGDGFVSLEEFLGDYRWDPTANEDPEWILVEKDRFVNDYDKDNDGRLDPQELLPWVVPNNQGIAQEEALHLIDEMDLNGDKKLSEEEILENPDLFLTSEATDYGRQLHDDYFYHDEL
UniProt Q13868, whole entry: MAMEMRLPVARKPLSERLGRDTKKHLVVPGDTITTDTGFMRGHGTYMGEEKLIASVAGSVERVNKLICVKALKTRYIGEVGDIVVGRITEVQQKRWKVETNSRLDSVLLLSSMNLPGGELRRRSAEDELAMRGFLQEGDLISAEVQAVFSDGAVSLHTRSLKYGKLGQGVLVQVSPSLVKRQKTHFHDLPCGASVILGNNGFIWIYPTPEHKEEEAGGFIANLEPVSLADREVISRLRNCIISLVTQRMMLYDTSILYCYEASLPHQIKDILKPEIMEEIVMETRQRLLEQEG
UniProt Q13617, whole entry: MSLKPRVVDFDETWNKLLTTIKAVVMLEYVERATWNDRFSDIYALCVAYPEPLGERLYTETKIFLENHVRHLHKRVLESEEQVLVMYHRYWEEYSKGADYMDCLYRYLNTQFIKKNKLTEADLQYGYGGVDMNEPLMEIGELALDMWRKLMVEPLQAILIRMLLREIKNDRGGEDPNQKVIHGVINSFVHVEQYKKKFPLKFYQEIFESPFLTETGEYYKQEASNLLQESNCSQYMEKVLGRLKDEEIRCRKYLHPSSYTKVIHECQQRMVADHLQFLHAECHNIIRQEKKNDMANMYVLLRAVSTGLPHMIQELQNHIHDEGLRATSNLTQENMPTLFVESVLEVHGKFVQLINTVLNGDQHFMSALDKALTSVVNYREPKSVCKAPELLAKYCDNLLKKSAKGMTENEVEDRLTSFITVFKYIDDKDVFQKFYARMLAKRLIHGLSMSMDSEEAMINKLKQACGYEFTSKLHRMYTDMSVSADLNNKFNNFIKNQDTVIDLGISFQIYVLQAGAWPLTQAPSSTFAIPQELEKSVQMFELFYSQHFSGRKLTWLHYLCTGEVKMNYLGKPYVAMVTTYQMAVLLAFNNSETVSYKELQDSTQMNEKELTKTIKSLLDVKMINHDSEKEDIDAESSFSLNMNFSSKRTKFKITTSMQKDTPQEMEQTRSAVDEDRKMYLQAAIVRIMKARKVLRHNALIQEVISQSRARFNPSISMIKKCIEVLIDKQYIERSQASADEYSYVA
UniProt Q13310, whole entry: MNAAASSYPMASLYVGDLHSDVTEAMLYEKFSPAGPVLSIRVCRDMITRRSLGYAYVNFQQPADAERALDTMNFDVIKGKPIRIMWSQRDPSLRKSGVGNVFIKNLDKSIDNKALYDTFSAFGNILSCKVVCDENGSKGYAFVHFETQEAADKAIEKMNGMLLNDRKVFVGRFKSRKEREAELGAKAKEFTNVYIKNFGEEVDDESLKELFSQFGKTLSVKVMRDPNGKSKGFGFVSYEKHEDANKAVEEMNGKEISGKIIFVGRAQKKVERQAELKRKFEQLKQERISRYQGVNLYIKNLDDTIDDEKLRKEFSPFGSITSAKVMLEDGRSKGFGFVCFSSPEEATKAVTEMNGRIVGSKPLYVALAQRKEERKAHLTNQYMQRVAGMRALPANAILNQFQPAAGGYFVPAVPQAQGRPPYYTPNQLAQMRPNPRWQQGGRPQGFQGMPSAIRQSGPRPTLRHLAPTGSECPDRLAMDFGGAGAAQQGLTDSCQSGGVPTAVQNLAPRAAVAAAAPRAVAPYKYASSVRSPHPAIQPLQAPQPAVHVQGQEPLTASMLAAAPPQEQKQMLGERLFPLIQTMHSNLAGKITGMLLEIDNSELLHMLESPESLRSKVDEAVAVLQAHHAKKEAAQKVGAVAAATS
UniProt Q13825: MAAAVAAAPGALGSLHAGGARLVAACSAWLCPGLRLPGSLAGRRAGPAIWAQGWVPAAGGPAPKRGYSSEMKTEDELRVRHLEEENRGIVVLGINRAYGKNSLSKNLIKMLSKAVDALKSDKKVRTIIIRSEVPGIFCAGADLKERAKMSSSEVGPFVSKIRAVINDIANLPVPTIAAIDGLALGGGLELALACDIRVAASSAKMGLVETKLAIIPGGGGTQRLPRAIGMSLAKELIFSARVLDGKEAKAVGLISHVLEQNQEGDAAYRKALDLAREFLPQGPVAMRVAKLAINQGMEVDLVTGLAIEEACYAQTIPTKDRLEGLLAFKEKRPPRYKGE
UniProt Q14103: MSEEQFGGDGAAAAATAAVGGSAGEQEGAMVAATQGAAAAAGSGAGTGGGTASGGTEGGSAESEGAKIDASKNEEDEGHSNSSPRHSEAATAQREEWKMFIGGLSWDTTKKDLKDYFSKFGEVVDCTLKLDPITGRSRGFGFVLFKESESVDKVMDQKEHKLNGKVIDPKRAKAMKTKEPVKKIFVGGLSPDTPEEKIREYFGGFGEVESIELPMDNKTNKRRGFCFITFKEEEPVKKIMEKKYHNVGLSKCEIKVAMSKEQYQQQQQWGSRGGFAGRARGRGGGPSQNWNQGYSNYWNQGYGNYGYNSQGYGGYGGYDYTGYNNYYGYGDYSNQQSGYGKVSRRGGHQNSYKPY

Compound in the test: CN[C@@H]1C[C@H]2O[C@@](C)([C@@H]1OC)n1c3ccccc3c3c4c(c5c6ccccc6n2c5c31)C(=O)NC4 [staurosporine]
In words: log2 fold change of tryptic peptide abundance, ligand vs vehicle (limited proteolysis) (log2 ratio); higher = more trypsin-susceptible (destabilized). As to conditions: ligand concentration: 20 uM; sample: K562 cleared lysate; digestion: 4 min, 22 C (HT-PELSA RT4min, Orbitrap Astral).
As to “LAGE3 (peptide sequence: GGVDTAAAPAGGAPPAHAPGPGR, peptide start residue: 25) (UniProt Q14657)”, the log2 fold change is -0.0488.
Consider “CLINT1 (peptide sequence: NKDKYVGVSSDSVGGFR, peptide start residue: 155) (UniProt Q14677)”, for which the log2 fold change is -0.107.
For “FASTKD3 (peptide sequence: IGLTNLLGAR, peptide start residue: 542) (UniProt Q14CZ7)”, the log2 fold change turned out to be 0.52.
In the case of “UniProt Q14094 (peptide sequence: LSPSQHLAVLTK, peptide start residue: 172)” it was 0.566; in that of “RBM39 (peptide sequence: VLGVPIIVQASQAEKNR, peptide start residue: 218) (UniProt Q14498)”, 0.554.
With “TUBB3 (peptide sequence: LATPTYGDLNHLVSATMSGVTTSLR, peptide start residue: 217) (UniProt Q13509)” the figure was 0.303; with “NCAPH (peptide sequence: TIEQNINNLNVSEADR, peptide start residue: 222) (UniProt Q15003)”, 0.496.
In the case of “UniProt Q15019 (peptide sequence: ASIPFSVVGSNQLIEAK, peptide start residue: 233)” it was -0.238; in that of “UBXN2B (peptide sequence: EHGAVPLNEATR, peptide start residue: 94) (UniProt Q14CS0)”, 0.239.
As for “JOSD1 (peptide sequence: GYEAVWWDK, peptide start residue: 95) (UniProt Q15040)”, the log2 fold change turned out to be 0.156.
With “UniProt Q14241 (peptide sequence: NIQFAHANKPK, peptide start residue: 673)” the figure was 0.399; with “IQCB1 (peptide sequence: EAEGKEPELFLSR, peptide start residue: 529) (UniProt Q15051)”, -0.332.
With “RCN2 (peptide sequence: EALLGVQEDVDEYVKLGHEEQQK, peptide start residue: 42) (UniProt Q14257)” the figure was -0.979.
For “EXOSC2 (peptide sequence: GHGTYMGEEK, peptide start residue: 42) (UniProt Q13868)”, the log2 fold change was found to be 0.232.
With “CUL2 (peptide sequence: CIEVLIDK, peptide start residue: 721) (UniProt Q13617)” the figure was -0.202; with “SART3 (peptide sequence: AGPKADGEEDEVK, peptide start residue: 18) (UniProt Q15020)”, -0.237.
“PABPC4 (peptide sequence: KFEQLKQER, peptide start residue: 279) (UniProt Q13310)”: the log2 fold change is 0.257.
With “AUH (peptide sequence: LEGLLAFK, peptide start residue: 322) (UniProt Q13825)”, the log2 fold change amounted to 0.406.
In the case of “MED21 (peptide sequence: IQSALADIAQSQLK, peptide start residue: 118) (UniProt Q13503)” it was 0.227; in that of “HNRNPD (peptide sequence: KYHNVGLSK, peptide start residue: 243) (UniProt Q14103)”, 0.216.
With “SLMAP (peptide sequence: ELIALQEDKHNYETTAK, peptide start residue: 239) (UniProt Q14BN4)” the figure was -0.419; with “CUL7 (peptide sequence: SQSHPALER, peptide start residue: 1432) (UniProt Q14999)”, 0.858; with “DGKZ (peptide sequence: DAGPEPDKAPR, peptide start residue: 28) (UniProt Q13574)”, 0.508.
With “NBR1 (peptide sequence: SLTLDAAPDHNPPCR, peptide start residue: 656) (UniProt Q14596)” the figure was -0.36; with “SNAPC2 (peptide sequence: VFLQQLK, peptide start residue: 64) (UniProt Q13487)”, 0.147.
For “PDIA5 (peptide sequence: FHISEFPTLK, peptide start residue: 347) (UniProt Q14554)”, the log2 fold change is -0.0213.
For the target “DHRS2 (peptide sequence: VNCVVPGIIKTDFSK, peptide start residue: 210) (UniProt Q13268)”, the log2 fold change is -0.366.
In the case of “FRG1 (peptide sequence: SKTAGEEEMIK, peptide start residue: 169) (UniProt Q14331)” it was -0.375.

Source of the values: the supplement of paper PMC12819154, “High-throughput peptide-centric local stability assay extends protein–ligand identification to membrane proteins, tissues and bacteria” (Nature Structural & Molecular Biology, 2025).
